The target of the assay is T1, wild-type human FFA2 tagged with eYFP at its C terminus (human) (UniProt O15552).
T1 sequence: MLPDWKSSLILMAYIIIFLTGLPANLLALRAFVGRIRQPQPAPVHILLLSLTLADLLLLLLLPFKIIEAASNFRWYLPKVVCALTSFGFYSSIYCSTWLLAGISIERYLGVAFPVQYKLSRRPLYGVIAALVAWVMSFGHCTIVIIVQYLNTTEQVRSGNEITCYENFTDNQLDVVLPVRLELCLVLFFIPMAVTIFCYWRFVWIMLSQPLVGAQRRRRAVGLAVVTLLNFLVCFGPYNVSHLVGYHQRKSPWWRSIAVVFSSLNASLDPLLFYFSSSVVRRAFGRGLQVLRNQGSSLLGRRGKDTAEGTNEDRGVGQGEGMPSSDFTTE
The experiment in a line: FRET or BRET; BRET in HEK-293T cells cotransfected with receptor-eYFP and β-arrestin-2-Renilla luciferase (ratio 4:1), 48 hr after transfection; coelenterazine-h 5 µM; interaction promoted by added agonist (sorbic acid or MOMBA for hFFA2-DREADD, C3 for wild-type hFFA2); net BRET 530/485 nm. A general note: In BRET a luciferase serves as donor, and the signal depends on an acceptor being close.

Sequences of proteins named here, by UniProt entry; tags and fusion partners are left off.
UniProt P32121: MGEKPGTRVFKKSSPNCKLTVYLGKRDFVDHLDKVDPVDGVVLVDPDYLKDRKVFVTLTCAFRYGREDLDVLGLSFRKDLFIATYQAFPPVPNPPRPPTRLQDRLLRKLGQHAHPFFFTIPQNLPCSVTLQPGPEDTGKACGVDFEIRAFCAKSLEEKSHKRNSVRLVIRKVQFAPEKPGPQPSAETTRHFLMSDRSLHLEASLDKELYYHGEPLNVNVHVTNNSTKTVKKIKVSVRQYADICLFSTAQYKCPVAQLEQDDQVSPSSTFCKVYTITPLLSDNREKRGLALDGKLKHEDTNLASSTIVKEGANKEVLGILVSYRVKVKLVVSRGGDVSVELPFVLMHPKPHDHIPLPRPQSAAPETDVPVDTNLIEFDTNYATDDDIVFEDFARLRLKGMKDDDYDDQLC

No constants are given. Whether binding was seen depends on the method and setting. Binding seen in cells or lysates may run through a third protein. Some binding calls cover weakened binding; strength is not graded here. Tags and fused reporters may be left off the sequences shown.

Take “β-arrestin-2-Renilla-luciferase (from UniProt P32121 1-409)”: the binding result is listed as “binds”.

The values are drawn from publication PMC8887895.
